Laboratory results: PubChem BioAssay AID1224826 (NIAID, 2016)
The deposit covers about 17,000 reagents; shown is a part drawn at random. About 1,110 of all reagents (6.6%) were called active. 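Active means lowered or raised reporter signal; replicate intensities are raw and not normalised per plate.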 Further read-outs or replicates are left out here.

Test: 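Regulators of Tlr4 signalling leading to Tnf-alpha expression in macrophages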 (primary screen)
Cells: RAW264.7 G9 macrophages from mouse bearing reporters for p65 (GFP) and the Tnf promoter (mCherry)
Reagent: siRNA pool against mouse genes, 100 nM
Time to read-out: 16 h of LPS stimulation, after 2 days of siRNA transfection
Treatment: bacterial lipopolysaccharide (Salmonella minnesota R595), 10 ng/ml
Measurement: 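Nuclear mCherry signal of the Tnf promoter reporter measured by imaging after background removal, scaled to each plate median and turned into robust z-scores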
Direction: Tnf reporter robust z-score: higher = stronger Tnf promoter reporter signal after LPS
Rule for the call: 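Called active when robust z-score is at most -1.3, matching the median of the Tlr4 knock-down control, or over 3; control wells and wells with under 50 cells never active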
Calls: active = Tnf reporter clearly lowered or raised; inactive = no clear change in Tnf reporter

With knock-down of Stxbp3 (GeneID 20912), the screen gave Tnf reporter robust z-score 2.84; fewer than 50 cells in well enough cells in well; inactive.
After knock-down of Atoh7 (GeneID 53404) the results were Tnf reporter robust z-score 1.89; fewer than 50 cells in well enough cells in well; inactive.
Pcdh9 (GeneID 211712) gave Tnf reporter robust z-score 0.43; fewer than 50 cells in well enough cells in well; inactive.
With knock-down of Lin28a (GeneID 83557), the record shows Tnf reporter robust z-score -0.38; fewer than 50 cells in well enough cells in well; inactive.
With knock-down of Dnajc4 (GeneID 57431) the results were Tnf reporter robust z-score 0.77; fewer than 50 cells in well enough cells in well; inactive.
Against Msn (GeneID 17698), the entry reads Tnf reporter robust z-score -1.5; fewer than 50 cells in well enough cells in well; active.
With knock-down of Ahnak (GeneID 66395) the results were fewer than 50 cells in well fewer than 50 cells per well; well left out of calls; inactive.
For Gba1 (GeneID 14466), the entry reads Tnf reporter robust z-score 0.58; fewer than 50 cells in well enough cells in well; inactive.
Grm7 (GeneID 108073) scored Tnf reporter robust z-score -0.5; fewer than 50 cells in well enough cells in well; inactive.
Depletion of Bnc2 (GeneID 242509) resulted in: Tnf reporter robust z-score -0.6; fewer than 50 cells in well enough cells in well; inactive.
Silencing of Trub2 (GeneID 227682) came out at: Tnf reporter robust z-score 0.71; fewer than 50 cells in well enough cells in well; inactive.
With knock-down of Esrp2 (GeneID 77411) the results were Tnf reporter robust z-score -0.4; fewer than 50 cells in well enough cells in well; inactive.

Called active, among the entries above:
Msn (GeneID 17698): Tnf reporter robust z-score = -1.5; fewer than 50 cells in well = enough cells in well; Outcome = active
